{"sequences": {"note": "By UniProt entry, the sequences of proteins in these tests, tags left out. Where a name states a change or a piece, a line headed by the entry shows the natural chain unless it says otherwise.", "UniProt P54132": "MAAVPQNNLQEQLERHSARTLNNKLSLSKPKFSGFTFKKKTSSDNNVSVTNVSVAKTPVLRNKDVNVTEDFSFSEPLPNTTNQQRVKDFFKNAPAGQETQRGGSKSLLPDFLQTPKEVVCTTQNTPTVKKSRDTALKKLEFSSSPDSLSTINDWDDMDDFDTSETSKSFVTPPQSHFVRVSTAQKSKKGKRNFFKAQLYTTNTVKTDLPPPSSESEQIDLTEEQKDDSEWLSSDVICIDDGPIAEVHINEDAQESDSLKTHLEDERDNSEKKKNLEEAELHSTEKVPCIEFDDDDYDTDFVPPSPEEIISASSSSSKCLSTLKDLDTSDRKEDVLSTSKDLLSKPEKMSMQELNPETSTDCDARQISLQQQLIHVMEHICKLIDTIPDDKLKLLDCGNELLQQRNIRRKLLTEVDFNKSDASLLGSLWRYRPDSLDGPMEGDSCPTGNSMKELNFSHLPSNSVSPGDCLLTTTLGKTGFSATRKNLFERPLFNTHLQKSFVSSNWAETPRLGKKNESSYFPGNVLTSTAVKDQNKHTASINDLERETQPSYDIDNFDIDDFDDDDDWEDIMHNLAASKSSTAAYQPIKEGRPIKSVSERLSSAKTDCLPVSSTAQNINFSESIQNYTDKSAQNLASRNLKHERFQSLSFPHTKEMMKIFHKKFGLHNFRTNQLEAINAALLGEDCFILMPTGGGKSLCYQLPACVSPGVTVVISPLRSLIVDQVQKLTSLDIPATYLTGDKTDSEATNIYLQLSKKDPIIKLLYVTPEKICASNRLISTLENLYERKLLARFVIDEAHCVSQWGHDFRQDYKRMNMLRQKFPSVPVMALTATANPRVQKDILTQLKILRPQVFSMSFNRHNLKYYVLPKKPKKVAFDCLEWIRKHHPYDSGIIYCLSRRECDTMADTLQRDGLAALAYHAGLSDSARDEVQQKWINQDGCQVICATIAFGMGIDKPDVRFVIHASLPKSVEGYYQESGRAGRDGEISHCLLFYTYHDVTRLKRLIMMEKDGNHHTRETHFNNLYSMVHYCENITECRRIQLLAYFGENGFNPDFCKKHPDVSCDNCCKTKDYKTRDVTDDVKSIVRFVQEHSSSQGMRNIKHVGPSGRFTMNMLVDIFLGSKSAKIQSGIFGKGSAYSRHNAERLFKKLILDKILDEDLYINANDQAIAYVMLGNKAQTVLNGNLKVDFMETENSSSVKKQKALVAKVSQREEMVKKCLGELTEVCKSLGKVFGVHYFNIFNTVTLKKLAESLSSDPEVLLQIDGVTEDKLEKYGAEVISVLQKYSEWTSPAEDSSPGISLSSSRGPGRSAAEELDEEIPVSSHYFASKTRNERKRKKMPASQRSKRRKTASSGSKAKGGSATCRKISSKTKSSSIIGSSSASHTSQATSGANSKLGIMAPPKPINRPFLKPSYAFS"}, "source": "PubChem BioAssay (NCATS)", "note": "The shares of active, inactive and inconclusive entries below differ from those in the screen. Potencies beside an inconclusive call are fits to weak or partial responses and may not hold up. The source made the active and inactive calls. Calls follow the shape of the dose curve; as a rule, active = well fitted inhibition curve with a large enough effect; inconclusive = small, poorly fitted or top-dose-only effect; inactive = no such curve, though single readings can be large or run the other way. Potency is read from the fitted curve at half-maximal effect."}
{"target": "RecQ-like DNA helicase BLM (Homo sapiens) (UniProt P54132)", "test": "qHTS for Inhibitors of WRN Helicase: BLM Helicase Counterscreen for WRN Inhibitors (AID 720503); also: nearly all actives have a fitted effect of over 60% in size", "details": "Recombinant BLM helicase DNA unwinding, red fluorescence; activity change, negative = inhibition: at 57.1 µM (top of the series)", "description": "Inhibition of DNA repair is proposed as a strategy for combating cancer. Synthetic lethality is an approach that exploits preexisting DNA repair deficiencies in certain tumors to develop inhibitors of DNA repair pathways that compensate for the tumor-associated DNA repair deficiency. Because helicases play critical roles in the DNA damage response and in DNA repair, particularly in actively dividing and replicating cells, characterization of synthetic lethal relationships of DNA helicases may be of value in developing improved anticancer treatment strategies; moreover, small molecules that specifically target a given DNA helicase may be useful for understanding its role in cellular nucleic acid metabolism. The goal of this project is to identify small molecule, non-covalent chemical inhibitors of the Werner syndrome (WS) helicase (WRN), which plays an important role in cell proliferation, the replication stress response, and DNA repair. […] The WRN gene product that is defective in the chromosomal instability disorder has DNA helicase and exonuclease activities and interacts with a number of nuclear proteins to maintain genomic stability. A 1536-well format, fluorescence based, high-throughput screen (AID 651768) has been developed in collaboration with the Brosh Laboratory at the National Institute of Aging (NIA) to screen for inhibitors of the WRN. This counterscreen is used to determine the activity of the validated WRN inhibitors against another related helicase, the Bloom's syndrome (BLM) helicase. […] NIH Chemical Genomics Center [NCGC] NIH Molecular Libraries Probe Centers Network [MLPCN] MLPCN Grant: MH096530 Assay Submitter (PI): Robert Brosh, National Institute of Aging\nThree uL of reaction buffer (25 mM Tris-HCl pH 8.0, 50 mM NaCl, 2 mM MgCl2, 1 mM DTT, 0.01% Tween-20, and 1 nM BLM) was dispensed into a 1536-well Greiner black assay plate via solenoid-valve based nanoliter dispensers. Compounds (23 nl each in columns 5-48) and control (23 nl each in column 2 as dose-response) were transferred to the assay plate via a Kalypsys pin-tool equipped with a 1536-pin array. The plates were incubated for 15 min at room temperature, followed by the addition of 1 ul substrates (100 nM DNA and 2 mM ATP, final concentrations) to start the reaction. The plates were transferred into a ViewLux CCD imager where the reaction was measured in a discontinuous kinetic mode (two reads spaced 15 minutes apart, with intermediate room temperature incubation of the covered assay plate) using the standard red-fluorescence optics (excitation filter 525 nm, emission filter 598 nm). Enzyme-free and vehicle (DMSO) controls were included for signal normalization."}
{"smiles": "CCN(CC)CCCNc1nc2ccccc2c2[nH]c3ccc(OC)cc3c12", "Potency": "inconclusive: 48.2 µM [inhibitor, single point]"}
{"smiles": "Nc1ccc2nc(-c3cccc(-c4nc5ccc(N)cc5[nH]4)c3)[nH]c2c1", "Potency": "inconclusive: 21.5 µM [inhibitor, partial curve]"}
{"smiles": "COc1ccc(NC(=O)CN(C)CC(=O)Nc2ccccc2SC)cc1", "activity change, negative = inhibition": "inactive: -20.9%"}
{"smiles": "O=C(CCN1C(=O)/C(=C/C=C/c2ccccc2)SC1=S)Nc1cccnc1", "Potency": "inconclusive: 10.8 µM [inhibitor, partial curve]"}
{"smiles": "C/C(N)=C(/C#N)C(=O)CSc1nnc(Nc2cccc(C)c2)s1", "Potency": "inconclusive: 6.81 µM [inhibitor, partial curve]"}
{"smiles": "COc1cc(/C=C2\\SC(=S)N(Nc3ncc(C(F)(F)F)cc3Cl)C2=O)ccc1O", "Potency": "active: 6.07 µM"}
{"smiles": "C=CCn1c(SCC(=O)c2ccc(O)c(O)c2)nnc1-c1ccc(C)cc1", "Potency": "inconclusive: 19.2 µM [inhibitor, partial curve]"}
{"smiles": "c1cnc(N2CCN(c3ncc4c(n3)CCNC4)CC2)nc1", "Potency": "inconclusive: 48.2 µM [inhibitor, single point]"}
{"smiles": "O=C(Nc1nncs1)c1cc(-c2ccco2)nc2ccccc12", "activity change, negative = inhibition": "inconclusive: -30.4% [inhibitor]"}
{"smiles": "O=C(/C=C/c1cccc2ccccc12)c1ccncc1", "activity change, negative = inhibition": "inactive: -13.9%"}
{"smiles": "CCc1cc(=O)oc2cc(C)c(CN3CCCCC3)c(O)c12", "Potency": "inconclusive: 27.1 µM [inhibitor, partial curve]"}
{"smiles": "N#CNC(=O)c1ccc(-n2cccc2/C=C2\\NC(=O)N(CC(=O)Nc3ccc(F)cc3)C2=O)cc1", "Potency": "active: 3.83 µM"}
{"smiles": "CCOC(=O)C1=C(C)N=c2sc(=Cc3ccc(OCC(=O)O)cc3)c(=O)n2C1c1ccc(Cl)cc1", "note": "(stereo not given)", "Potency": "active: 3.41 µM"}
{"smiles": "CCN(CC)CCCNc1nc2cc(OC)c(OC)cc2c2nc(-c3ccccc3)nn12", "activity change, negative = inhibition": "inactive: 24.6%"}
{"smiles": "CC1=NOC(=O)/C1=C\\c1ccc(-c2cccc(Cl)c2)o1", "Potency": "active: 7.64 µM"}
{"smiles": "C[C@@H]1NC(=O)N[C@@H]1CCCCCC(=O)O", "Potency": "inconclusive: 19.2 µM [inhibitor, partial curve]"}
{"smiles": "CC1=C(C)CS(=O)N(S(=O)(=O)c2ccccc2)C1", "note": "(stereo not given)", "activity change, negative = inhibition": "inactive: -17.3%"}
{"smiles": "COC1=C(OC)C(=O)C(Sc2ccc3ccccc3c2)=CC1=O", "activity change, negative = inhibition": "inactive: -6.41%"}
{"smiles": "COc1ccc(/C=C2\\C(=O)ON=C2c2ccccc2)cc1", "activity change, negative = inhibition": "inactive: -25%"}
{"smiles": "COc1ccc(Cl)cc1NC(=O)c1c(NCc2sccc2C)sc2c1CCCC2", "Potency": "inconclusive: 10.8 µM [inhibitor, partial curve]"}
{"smiles": "CC1(C)OC(=O)C(=Cc2ccc(-c3ccc(S(N)(=O)=O)cc3)o2)C(=O)O1", "Potency": "inconclusive: 30.4 µM [inhibitor, partial curve]"}
{"smiles": "COC(=O)c1c(NC(=O)CCCOc2ccc(C)cc2)sc2c1C(C(=O)OC)CC2", "note": "(stereo not given)", "Potency": "inconclusive: 30.4 µM [inhibitor, partial curve, poor fit]"}
{"smiles": "Cc1ccc(OCC(=O)c2c(N)n(C)c(=O)n(C)c2=O)c([N+](=O)[O-])n1", "Potency": "active: 4.82 µM"}
{"smiles": "CCn1nc(C(=O)OCC(=O)Nc2ncc(Cl)c(C)c2Cl)c2ccccc2c1=O", "Potency": "inconclusive: 19.2 µM [inhibitor, partial curve]"}
{"smiles": "Cc1ccc(NN2C(=O)C=C(c3ccccc3)C2=O)cc1", "activity change, negative = inhibition": "inactive: -21.8%"}
{"smiles": "COc1ccc(S(=O)(=O)Nc2cc(Sc3ncn[nH]3)c(O)c3ccccc23)cc1", "Potency": "inconclusive: 24.1 µM [inhibitor, partial curve]"}
{"smiles": "CCOC(=O)c1nn(-c2ccccc2C)c(=O)c2c(N)scc12", "Potency": "inconclusive: 27.1 µM [inhibitor, partial curve, poor fit]"}
{"smiles": "CCN(CC)c1ccc(N=C2C=CC(=O)C=C2NC(C)=O)cc1", "activity change, negative = inhibition": "inactive: -23.4%"}
{"smiles": "Cc1cc(Cl)c(OCCOCCN2CCCCC2)c(Br)c1", "activity change, negative = inhibition": "inactive: -14.6%"}
{"smiles": "O=C(Nc1cc(SCC(O)CO)cc([N+](=O)[O-])c1)c1ccc(-n2cnnn2)cc1", "note": "(stereo not given)", "Potency": "inconclusive: 9.61 µM [inhibitor, partial curve]"}
{"smiles": "CC1=C(C)CS(=O)N(S(=O)(=O)c2ccc(Cl)cc2)C1", "note": "(stereo not given)", "Potency": "inconclusive: 24.1 µM [inhibitor, partial curve]"}
{"smiles": "Cc1ccc(N2C(=O)CS(=O)C(c3ccccc3)C2=O)cc1C", "note": "(stereo not given)", "Potency": "inconclusive: 21.5 µM [inhibitor, partial curve]"}
{"smiles": "Cc1cc(NS(=O)(=O)c2ccc(NC(=O)/C=C/c3ccc(Br)cc3)cc2)no1", "Potency": "inconclusive: 34.1 µM [inhibitor, partial curve, poor fit]"}
{"smiles": "CCOc1cc(/C=C2\\C(=O)ON=C2C)ccc1OCc1ccccc1", "activity change, negative = inhibition": "inactive: -11.8%"}
{"smiles": "CC(=O)N(C1=C(Cl)C(=O)c2ccccc2C1=O)C1CCCCC1", "Potency": "inconclusive: 24.1 µM [inhibitor, partial curve]"}
{"smiles": "Cc1ccc(-c2nn3cnnc3s2)cc1NC(=O)c1ccc(-c2cccc(Cl)c2)o1", "Potency": "inconclusive: 6.07 µM [inhibitor, full curve]"}
{"smiles": "O=C(Nc1ccccc1)c1nnsc1S(=O)(=O)c1ccc(Cl)cc1", "activity change, negative = inhibition": "inactive: -18.7%"}
{"smiles": "CC1=C(SCc2ccccc2)C(=O)c2ccccc2C1=O", "Potency": "active: 24.1 µM"}
{"smiles": "CN1CCN(S(=O)(=O)c2cccc(C(=O)Nc3sccc3C#N)c2)CC1", "Potency": "inconclusive: 24.1 µM [inhibitor, partial curve]"}
{"smiles": "Cc1cc(=O)c2c(o1)C(=O)c1occc1C2=O", "Potency": "inconclusive: 38.3 µM [inhibitor, partial curve]"}
